From paper PMC12501846
Results are given in words; binding and its absence hold for the method and conditions named. In cells and extracts the contact can be indirect. Some results given as binding are weak or reduced against the parent protein; the word gives no strength.

The chains behind the UniProt entries cited, without tags or fusion partners. Where a name states a change or a piece, a line headed by the entry shows the natural chain unless it says otherwise.
UniProt P70288: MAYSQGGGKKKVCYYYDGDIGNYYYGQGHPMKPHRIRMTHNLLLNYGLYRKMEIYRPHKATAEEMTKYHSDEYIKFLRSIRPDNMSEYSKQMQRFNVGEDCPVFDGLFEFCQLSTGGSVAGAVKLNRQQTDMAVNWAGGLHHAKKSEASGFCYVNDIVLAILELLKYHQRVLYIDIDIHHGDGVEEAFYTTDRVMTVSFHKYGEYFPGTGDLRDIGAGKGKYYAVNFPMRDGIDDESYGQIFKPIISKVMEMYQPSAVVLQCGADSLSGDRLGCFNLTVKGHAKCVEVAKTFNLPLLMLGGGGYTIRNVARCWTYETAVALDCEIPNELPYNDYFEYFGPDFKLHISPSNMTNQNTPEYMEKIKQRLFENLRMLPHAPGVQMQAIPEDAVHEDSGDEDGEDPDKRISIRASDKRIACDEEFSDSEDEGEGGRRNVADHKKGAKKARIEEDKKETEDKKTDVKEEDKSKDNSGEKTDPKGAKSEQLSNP
UniProt P35222: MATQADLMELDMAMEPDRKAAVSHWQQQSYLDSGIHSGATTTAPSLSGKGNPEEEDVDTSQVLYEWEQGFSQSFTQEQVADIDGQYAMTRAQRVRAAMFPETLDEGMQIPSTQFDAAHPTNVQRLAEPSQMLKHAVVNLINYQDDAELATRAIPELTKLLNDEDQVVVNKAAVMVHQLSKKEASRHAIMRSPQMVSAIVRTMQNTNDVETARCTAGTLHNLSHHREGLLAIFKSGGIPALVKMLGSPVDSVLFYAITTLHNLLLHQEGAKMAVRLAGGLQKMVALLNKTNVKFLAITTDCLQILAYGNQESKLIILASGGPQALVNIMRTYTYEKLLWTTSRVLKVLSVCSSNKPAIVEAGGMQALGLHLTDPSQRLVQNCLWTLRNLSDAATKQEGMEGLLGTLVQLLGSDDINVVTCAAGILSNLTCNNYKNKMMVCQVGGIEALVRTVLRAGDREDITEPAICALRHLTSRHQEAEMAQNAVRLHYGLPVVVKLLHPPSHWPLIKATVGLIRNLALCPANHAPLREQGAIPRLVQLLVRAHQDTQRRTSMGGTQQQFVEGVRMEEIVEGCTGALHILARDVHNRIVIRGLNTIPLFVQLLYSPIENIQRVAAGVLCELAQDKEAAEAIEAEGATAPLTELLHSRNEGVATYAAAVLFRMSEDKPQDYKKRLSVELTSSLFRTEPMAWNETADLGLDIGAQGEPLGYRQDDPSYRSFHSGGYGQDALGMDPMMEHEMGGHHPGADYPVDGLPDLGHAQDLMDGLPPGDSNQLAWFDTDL

Legend:
[1] = target: T1, Nanog, endogenous (mouse (endogenous in ESCs and EpiSCs)) (UniProt Q80Z64); test: co-IP; IP of Nanog and HDAC2 from ESCs with forced expression of each Ctnnb1 mutant
T1 sequence: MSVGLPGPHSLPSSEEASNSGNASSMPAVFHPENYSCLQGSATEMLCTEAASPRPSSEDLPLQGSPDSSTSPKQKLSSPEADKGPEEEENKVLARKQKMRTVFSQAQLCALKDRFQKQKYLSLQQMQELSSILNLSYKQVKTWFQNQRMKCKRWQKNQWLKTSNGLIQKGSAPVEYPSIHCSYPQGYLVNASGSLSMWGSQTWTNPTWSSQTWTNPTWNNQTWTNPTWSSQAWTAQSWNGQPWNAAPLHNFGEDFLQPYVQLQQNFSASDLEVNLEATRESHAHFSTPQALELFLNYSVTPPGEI

[2] = target: T2, Tcf3, endogenous (mouse (endogenous in ESCs)) (UniProt Q9Z1J1); test: co-IP; ESCs ectopically expressing Ctnnb1 S33Y, K49R or K49Q, followed by IP; binding to Nanog or Tcf3
T2 sequence: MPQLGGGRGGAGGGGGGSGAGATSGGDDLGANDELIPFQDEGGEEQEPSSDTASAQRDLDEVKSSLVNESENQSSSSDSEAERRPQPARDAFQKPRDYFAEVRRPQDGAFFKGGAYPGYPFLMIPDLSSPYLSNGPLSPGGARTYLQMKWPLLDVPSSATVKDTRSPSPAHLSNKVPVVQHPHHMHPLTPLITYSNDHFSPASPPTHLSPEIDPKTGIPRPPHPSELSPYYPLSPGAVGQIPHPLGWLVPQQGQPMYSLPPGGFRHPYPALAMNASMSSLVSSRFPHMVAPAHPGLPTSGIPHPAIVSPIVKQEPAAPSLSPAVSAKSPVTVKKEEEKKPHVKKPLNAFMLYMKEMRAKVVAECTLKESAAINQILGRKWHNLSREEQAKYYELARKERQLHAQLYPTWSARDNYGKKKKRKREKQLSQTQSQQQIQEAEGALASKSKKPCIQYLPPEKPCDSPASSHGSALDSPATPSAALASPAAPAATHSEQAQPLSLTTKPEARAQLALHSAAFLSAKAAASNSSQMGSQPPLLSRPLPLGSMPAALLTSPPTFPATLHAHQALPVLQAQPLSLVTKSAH

## HDAC2, endogenous (from UniProt P70288 1-488)
[1]
  binding: binds

## HA-Ctnnb1 S33Y K49Q (acetylation mimic) (from UniProt P35222 1-781)
[2]
  binding: binds

## HA-Ctnnb1 S33Y (stabilized form of Ctnnb1) (from UniProt P35222 1-781)
[2]
  binding: binds
